# Percent effect of library compounds

Chains of the proteins cited; added tags and fusions are not shown. Residues count along the entry.
UniProt P9WFT3, whole entry: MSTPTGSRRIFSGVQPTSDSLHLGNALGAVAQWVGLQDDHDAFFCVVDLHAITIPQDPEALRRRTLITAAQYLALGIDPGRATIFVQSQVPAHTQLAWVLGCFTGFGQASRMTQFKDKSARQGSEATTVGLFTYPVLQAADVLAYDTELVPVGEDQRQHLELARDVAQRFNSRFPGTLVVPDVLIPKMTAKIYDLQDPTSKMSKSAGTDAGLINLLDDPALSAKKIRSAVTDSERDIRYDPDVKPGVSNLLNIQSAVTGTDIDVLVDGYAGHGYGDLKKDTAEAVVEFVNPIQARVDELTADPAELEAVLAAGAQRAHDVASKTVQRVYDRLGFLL
UniProt P9WPC5, whole entry: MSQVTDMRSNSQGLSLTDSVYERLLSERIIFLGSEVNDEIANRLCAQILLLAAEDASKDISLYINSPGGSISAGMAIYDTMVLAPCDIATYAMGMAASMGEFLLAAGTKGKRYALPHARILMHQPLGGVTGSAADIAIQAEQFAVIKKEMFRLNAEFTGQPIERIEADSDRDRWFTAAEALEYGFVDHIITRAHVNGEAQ
UniProt P9WPC3, whole entry partner: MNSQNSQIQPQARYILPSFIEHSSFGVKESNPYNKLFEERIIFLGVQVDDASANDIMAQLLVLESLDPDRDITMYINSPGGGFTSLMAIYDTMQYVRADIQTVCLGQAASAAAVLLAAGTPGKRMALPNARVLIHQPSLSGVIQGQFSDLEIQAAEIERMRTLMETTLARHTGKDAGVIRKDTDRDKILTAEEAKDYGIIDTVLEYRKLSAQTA
UniProt I6X8D2, whole entry: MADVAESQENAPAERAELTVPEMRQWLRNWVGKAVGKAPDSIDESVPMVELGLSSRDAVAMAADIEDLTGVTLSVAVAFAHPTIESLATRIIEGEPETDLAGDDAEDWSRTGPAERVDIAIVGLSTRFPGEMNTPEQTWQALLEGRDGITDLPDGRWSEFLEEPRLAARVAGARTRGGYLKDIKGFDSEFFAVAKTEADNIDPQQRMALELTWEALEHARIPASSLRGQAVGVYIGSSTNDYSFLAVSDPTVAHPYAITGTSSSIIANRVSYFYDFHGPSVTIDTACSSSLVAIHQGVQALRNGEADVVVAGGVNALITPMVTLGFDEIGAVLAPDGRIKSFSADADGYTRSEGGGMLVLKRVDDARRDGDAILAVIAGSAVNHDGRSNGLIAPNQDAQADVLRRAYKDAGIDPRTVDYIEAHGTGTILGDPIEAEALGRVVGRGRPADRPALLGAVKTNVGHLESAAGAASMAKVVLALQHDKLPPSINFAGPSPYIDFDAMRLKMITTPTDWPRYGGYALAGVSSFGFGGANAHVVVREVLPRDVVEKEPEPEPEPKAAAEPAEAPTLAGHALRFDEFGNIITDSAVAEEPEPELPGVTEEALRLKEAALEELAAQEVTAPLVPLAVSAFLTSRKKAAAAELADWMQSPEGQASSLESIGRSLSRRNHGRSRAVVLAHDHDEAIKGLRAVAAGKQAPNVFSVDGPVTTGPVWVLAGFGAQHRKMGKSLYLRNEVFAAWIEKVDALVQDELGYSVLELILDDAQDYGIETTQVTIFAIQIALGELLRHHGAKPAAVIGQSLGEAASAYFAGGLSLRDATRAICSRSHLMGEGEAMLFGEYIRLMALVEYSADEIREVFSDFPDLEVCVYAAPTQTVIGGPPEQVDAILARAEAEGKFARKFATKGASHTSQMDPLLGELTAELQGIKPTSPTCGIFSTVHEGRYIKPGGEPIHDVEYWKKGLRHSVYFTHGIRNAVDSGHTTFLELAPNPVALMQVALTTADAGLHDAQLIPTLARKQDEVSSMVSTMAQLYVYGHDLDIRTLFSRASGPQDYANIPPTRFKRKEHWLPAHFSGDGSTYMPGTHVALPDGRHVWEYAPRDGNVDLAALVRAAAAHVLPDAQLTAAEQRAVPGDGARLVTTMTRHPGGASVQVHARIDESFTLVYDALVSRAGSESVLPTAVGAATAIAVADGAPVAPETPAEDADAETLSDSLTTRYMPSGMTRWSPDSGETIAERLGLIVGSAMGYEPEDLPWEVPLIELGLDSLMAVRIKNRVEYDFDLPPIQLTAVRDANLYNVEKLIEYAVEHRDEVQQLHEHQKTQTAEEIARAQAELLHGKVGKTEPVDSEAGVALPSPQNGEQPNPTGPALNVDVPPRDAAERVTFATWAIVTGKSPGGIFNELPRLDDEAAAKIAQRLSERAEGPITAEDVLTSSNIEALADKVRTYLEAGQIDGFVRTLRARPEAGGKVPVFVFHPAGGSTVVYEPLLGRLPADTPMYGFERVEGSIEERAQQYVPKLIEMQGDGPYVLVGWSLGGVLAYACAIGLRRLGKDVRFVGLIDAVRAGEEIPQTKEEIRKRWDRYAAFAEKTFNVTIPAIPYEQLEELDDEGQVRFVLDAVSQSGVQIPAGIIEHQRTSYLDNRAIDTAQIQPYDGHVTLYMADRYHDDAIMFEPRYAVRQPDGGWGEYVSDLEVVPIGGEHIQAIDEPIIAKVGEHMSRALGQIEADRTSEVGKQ
UniProt Q8IDJ8, 1-583: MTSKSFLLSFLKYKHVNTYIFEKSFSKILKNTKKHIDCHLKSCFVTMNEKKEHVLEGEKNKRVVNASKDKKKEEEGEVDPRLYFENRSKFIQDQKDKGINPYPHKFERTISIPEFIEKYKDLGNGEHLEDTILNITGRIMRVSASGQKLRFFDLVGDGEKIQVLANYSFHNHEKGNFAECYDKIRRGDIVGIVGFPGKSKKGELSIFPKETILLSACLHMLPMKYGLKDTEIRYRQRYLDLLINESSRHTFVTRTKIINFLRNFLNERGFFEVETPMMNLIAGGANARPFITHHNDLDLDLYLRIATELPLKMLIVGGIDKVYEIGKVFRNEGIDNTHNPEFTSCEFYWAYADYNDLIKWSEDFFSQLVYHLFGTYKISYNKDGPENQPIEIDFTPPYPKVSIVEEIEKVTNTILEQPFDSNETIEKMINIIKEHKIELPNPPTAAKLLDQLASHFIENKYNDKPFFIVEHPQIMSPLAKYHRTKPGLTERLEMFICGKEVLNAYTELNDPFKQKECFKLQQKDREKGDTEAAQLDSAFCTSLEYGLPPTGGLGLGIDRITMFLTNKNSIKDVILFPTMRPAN

A: 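Tryptophan-tRNA ligase, Mycobacterium tuberculosis (UniProt P9WFT3). Enzyme assay of tryptophanyl-tRNA synthetase; the read-out is not stated. Tested at 10 µM. Higher most likely means stronger inhibition; the record gives no direction and few retests gave an IC50. Of about 65,000 compounds tested this way, about 64 (0.098%) reached 50% or more in at least one test.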
B: 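Protease assay of ClpP1P2, read by the AMC dye that it sets free. Target: ClpP1P2, Mycobacterium tuberculosis (UniProt P9WPC5 and UniProt P9WPC3). Concentration: 50 µM. Direction is inferred from only a few compounds that gave an IC50; most scored high, so higher reads as stronger inhibition. Most other retested compounds had strongly negative values. About 69,000 compounds were tested under these conditions; 0.015% (about 10) showed 50% or more at least once.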
C: 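Enzyme assay of the thioesterase domain of polyketide synthase 13; the read-out is not stated. Target: Polyketide synthase Pks13, Mycobacterium tuberculosis (UniProt I6X8D2). Concentration: 30 µM. The record gives no direction; the compounds picked for IC50 retests had high values, so higher reads as stronger inhibition. Of about 67,000 compounds tested this way, about 300 (0.46%) reached 50% or more in at least one test.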
D: 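Enzyme assay of the cytosolic lysyl-tRNA synthetase in 384-well plates, read by luminescence. Target: Lysine-tRNA ligase, Plasmodium falciparum 3D7 (UniProt Q8IDJ8). Tested at 30 µM. Higher reads as stronger inhibition, judged from the few compounds that gave an IC50. About 69,000 compounds were tested under these conditions; 0.071% (about 49) showed 50% or more at least once.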

Results are given as percent effect.
The controls that fix the scale are not given in the record; negative values are as filed.
This is an unselected part of the compounds tested.

{"smiles": "CN1C(=O)CCC12CCN(Cc1ccco1)CC2", "A": -2.035, "B": 7.702, "C": -32.71, "D": -2.115}
{"smiles": "O=C(c1ccncc1Cl)N1CCN(Cc2ccco2)C(CCO)C1", "stereo": "configuration not stated", "A": 2.346, "B": -8.597, "C": -1.75, "D": 0.3177}
{"smiles": "Cc1nc(CNC(=O)c2cc(COc3ccccc3)[nH]n2)n[nH]1", "A": -0.1361, "B": -16.91, "C": -4.65, "D": 7.07}
{"smiles": "COc1ccc(Cl)cc1NCC(=O)NCCc1ccccn1", "A": -0.3912, "B": -5.743, "C": 2.256, "D": 1.638}
{"smiles": "CNc1ncc(CN(C)C(=O)c2ccc(C3CCCO3)s2)cn1", "stereo": "configuration not stated", "A": 1.651, "B": 7.127, "C": -18.04, "D": 1.59}
{"smiles": "Cc1cc(N2CCN(CCO)CC2)nc(-c2ccncc2)n1", "A": -1.165, "B": -10.6, "C": -20.19, "D": 2.403}
{"smiles": "Cn1ccnc1CN1CCN(CC(O)c2cc(F)ccc2F)CC1", "stereo": "configuration not stated", "A": 5.016, "B": -53.43, "C": -25.67, "D": 0.2303}
{"smiles": "COCCN(C)C[C@@H]1CN(C(=O)c2ccc(=O)n(C)c2)C[C@@H]1CO", "A": 0.9032, "B": -8.123, "C": -1.977, "D": 0.352}
{"smiles": "c1cncc(C2COC3(CCN(Cc4ccsc4)CC3)C2)c1", "stereo": "configuration not stated", "A": -5.172, "B": -16.64, "C": -28.31, "D": -1.204}
{"smiles": "COc1cc(C(C)NCc2c[nH]nc2C)ccc1OCCO", "stereo": "configuration not stated", "A": -0.7947, "B": -0.3226, "C": -3.004, "D": -4.089}
{"smiles": "O=C1CC(c2ccccc2C(F)(F)F)c2sc(N3CCOCC3)nc2N1", "stereo": "configuration not stated", "A": 9.898, "B": -59.92, "C": -14.68, "D": 82.62}
{"smiles": "Cc1nn(C)c2cnn(Cc3ccc(C(=O)N4CCCCC4)o3)c12", "A": -0.4599, "B": -4.442, "C": -31.04, "D": 6.483}
{"smiles": "Cc1noc(NCc2cn(C)nc2-c2cccnc2)n1", "A": 1.286, "B": -4.764, "C": -4.477, "D": -0.8151}
{"smiles": "O=C(CCc1ccccc1Br)N1CC(S(=O)(=O)C2CCCCC2)C1", "A": 2.964, "B": -32.45, "C": -22.79, "D": 3.067}
{"smiles": "CCC(C(=O)NC(C)(C)C)n1ccc2ncccc2c1=O", "stereo": "configuration not stated", "A": -0.5376, "B": -6.345, "C": -42.19, "D": 4.202}
{"smiles": "Cc1nnc(NCc2cccc(OCc3ccccn3)c2)c(C#N)c1C", "A": -2.593, "B": 8.652, "C": 27.81, "D": 8.656}
{"smiles": "Cc1ccc(CNC2CCN(CCc3ccncc3)CC2)s1", "A": -1.876, "B": -2.256, "C": -32.87, "D": 10.46}
{"smiles": "CC(=O)N1CCC(NC(=O)N(C)Cc2c(C)noc2C)CC1", "A": 3.209, "B": -27.81, "C": -19.94, "D": 1.359}
{"smiles": "CN(C)C(=O)[C@@H]1CCO[C@@H]2CCN(c3ncccn3)C[C@@H]21", "A": 0.4647, "B": -7.413, "C": 14.22, "D": 0.9854}
{"smiles": "CNC(=O)C1CCCN1C(=O)NCCCc1cccc(F)c1", "stereo": "configuration not stated", "A": -7.946, "B": 0.09852, "C": -36.86, "D": -0.2103}
{"smiles": "Cc1ccccc1NC(=O)N1CCN(C(=O)C2CC2)[C@@H]2CS(=O)(=O)C[C@@H]21", "A": 3.295, "B": 14.29, "C": -6.041, "D": 4.429}

Once more, the final 2:

* CNC(=O)C1CCCN1C(=O)NCCCc1cccc(F)c1 (configuration not stated) : A: -7.946%; B: 0.09852%; C: -36.86%; D: -0.2103%
* Cc1ccccc1NC(=O)N1CCN(C(=O)C2CC2)[C@@H]2CS(=O)(=O)C[C@@H]21 : A: 3.295%; B: 14.29%; C: -6.041%; D: 4.429%

The values are deposited in ChEMBL (CHEMBL3988442, “University of Dundee, Small-Polar-MMV Screening Library” (2021)).